# Among all 340,000 compounds or so, about 6,200 (1.8%) were called active. The shares of active, inactive and inconclusive entries below differ from those in the screen. Calls follow the shape of the dose curve; as a rule, active = well fitted activation curve with a large enough effect; inconclusive = small, poorly fitted or top-dose-only effect; inactive = no such curve, though single readings can be large or run the other way. Where the call is inconclusive, the potency comes from a doubtful curve fit.
# Assay: A quantitative high throughput screen for small molecules that induce DNA re-replication in SW480 colon adenocarcinoma cells. Also: nearly all actives have a fitted effect of over 55% in size. As to re-replication activation: % of control where 0% means no effect.
# Conditions: Hoechst DNA content imaging, 48 h; re-replication activation: at 46.1 µM (top of the series) unless noted
# Outline: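 DNA re-replication was detected as more nuclei of elevated Hoechst intensity after 48 hr exposure to compound (23 nL pinned per well of 250 cells).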
# Potency is read from the fitted curve at half-maximal effect.
Compound,Potency,re-replication activation
Cc1ccc(C)c(N2CCN(C(=O)Cc3cn(C)c4ccccc34)CC2)c1,"inconclusive: 16.4 µM [activator, single point]",–
CN(C)c1ccc(C(=O)NNC(=O)c2ccc(Cl)cc2)cc1,inactive,–
Cc1cc2c(C)cc(=O)oc2c2c1NCCC2,"inconclusive: 14.1 µM [activator, single point]",–
CCN(CC)c1ccc(N=C2C=CC(=O)C=C2NC(C)=O)cc1,"inconclusive: 29.1 µM [activator, partial curve, poor fit]",–
Cc1cc(C)c2ccc(N)nc2c1O,"inconclusive: 29.1 µM [activator, single point]",–
CCOc1cc(C)c(Cl)cc1S(=O)(=O)NCc1ccc2c(c1)OCO2,"inconclusive: 29.1 µM [activator, single point]",–
CN(C)CCN(C(=O)/C=C/c1cccs1)c1nc2ccc(F)cc2s1,"inconclusive: 29.1 µM [activator, partial curve, poor fit]",–
Cc1onc(-c2ccccc2)c1C(=O)NNC(=S)NC(=O)c1ccc(Br)cc1,"inconclusive: 16.4 µM [activator, partial curve, poor fit]",–
CCOC(=O)c1ccc(N(CC(=O)NC2CCCCC2)C(=O)CNC(=O)c2ccco2)cc1,inactive,–
CC1=NN(Cc2cc(C(C)(C)C)c(O)c(C(C)(C)C)c2)C(=O)C1,"inconclusive: 20.6 µM [activator, partial curve, poor fit]",–
Cc1cc2cc(CN(Cc3ccc4c(c3)OCO4)C(=O)c3ccco3)c(=O)[nH]c2cc1C,"inconclusive: 20.6 µM [activator, partial curve, poor fit]",–
CC(=O)c1ccc(OCCCC(=O)Nc2ccc(C)c(S(=O)(=O)N3CCCCC3)c2)cc1,"inconclusive: 20.6 µM [activator, single point]",–
COc1ccc(S(=O)(=O)NCC2CCCN(Cc3cn(C)nc3C)C2)cc1 (centres undefined),inactive,–
COc1ccc(C(=O)NCC(=O)OCC(=O)N2CCc3ccccc32)cc1,"inconclusive: 6.51 µM [activator, single point]",–
CCOC(=O)c1nc2c(ccc3ccccc32)cc1C,"inconclusive: 18.4 µM [activator, single point]",–
Cc1ccccc1C(=O)c1cccn1CC(=O)NC(C)c1ccc2c(c1)OCCO2 (centres undefined),"inconclusive: 0.517 µM [activator, full curve, poor fit]",–
CCOc1ccc(C(=O)N2CCN(c3ccccn3)CC2)cc1OCC,inactive,–
O=C(/C=C/c1ccc([N+](=O)[O-])cc1)c1cccs1,"inconclusive: 20.6 µM [activator, single point]",–
Cc1cc(=O)n2nc(N3CCC(C(=O)NCc4ccccc4F)CC3)sc2n1,"inconclusive: 29.1 µM [activator, partial curve, poor fit]",–
Cc1c(C)c2cccnc2c2ncccc12,"inconclusive: 6.51 µM [activator, single point]",–
CCSc1nc(N)nc2c1ncn2C1OC(CO)C(O)C1O (centres undefined),inactive,–
CN(C)Cc1nc2ccccc2c(=O)n1CC(=O)Nc1cccc(S(=O)(=O)N2CCOCC2)c1,"inconclusive: 6.51 µM [activator, partial curve, poor fit]",–

Compound,Potency,re-replication activation
O=C(CN1CCC(C(O)(c2ccccc2)c2ccccc2)CC1)Nc1cc(Cl)ccc1Cl,"inconclusive: 14.6 µM [activator, single point]",–
N#Cc1c(C(F)(F)F)cc(-c2ccco2)nc1SCc1ccncc1,"inconclusive: 29.1 µM [activator, single point]",–
O=S(=O)(c1ccc2nc(Cc3cccc(C(F)(F)F)c3)[nH]c2c1)N1CCOCC1,"inconclusive: 18.4 µM [activator, single point]",–
CC1CCCN(C(=O)COC(=O)C2CCN(S(=O)(=O)c3c(Cl)cccc3Cl)CC2)C1 (centres undefined),inactive,–
COc1cc(N2CCCC2)c(OC)cc1/C=C1/NC(=S)NC1=O,inactive,–
CN(C)CCCN(C(=O)COc1ccccc1)c1nc2ccc(F)cc2s1,inactive,–
Cc1ccccc1NC(=S)N(Cc1cccnc1)Cc1ccccc1Cl,inactive,–
Cc1cc(NC(=O)CN(C)S(=O)(=O)c2cnc[nH]2)ccc1Br,"inconclusive: 25.9 µM [activator, single point]",–
O=C(NCCCNC(=O)c1cccs1)c1cccs1,–,inactive: -0.376% [at 9.22 µM]
CCCC(=O)Nc1ccc(C(=O)NNC(=S)NC(=O)c2ccc(Br)o2)cc1,"inconclusive: 20.6 µM [activator, single point]",–
COc1cccc(-c2nnc(NC(=O)c3ccc(S(=O)(=O)N4CC(C)OC(C)C4)cc3)o2)c1 (centres undefined),"inconclusive: 5.17 µM [activator, full curve]",–
Cc1ccc(C2=NN=C(NC(=O)CSc3nnc4c5ccccc5n(C)c4n3)SC2)cc1,"inconclusive: 29.1 µM [activator, single point]",–
COc1ccccc1CN1C(=NC(=O)CCC2CCCC2)SC2CS(=O)(=O)CC21 (centres undefined),"inconclusive: 29.1 µM [activator, single point]",–
Cc1cc(O)c(C(C)C)cc1N=Cc1ccccc1[N+](=O)[O-],"inconclusive: 29.1 µM [activator, single point]",–
O=C(COc1ccccc1)NCC(=O)N1CCCCCC1,inactive,–
O=C(NCc1nc2ccccc2[nH]1)c1ccc(Cl)c(S(=O)(=O)N2CCCC2)c1,–,inactive: -4.41% [at 9.22 µM]
COc1ccc(CNC(=O)C2CCN(S(=O)(=O)c3ccc(Br)s3)CC2)cc1,"inconclusive: 35.5 µM [activator, single point]",–
O=S(=O)(c1ccc(C2CCCCC2)cc1)N1CCCC1,inactive,–
CC(=O)c1cc2c(cc1NC(=O)C1CN(C(C)=O)c3ccccc3O1)OCO2 (centres undefined),inactive,–
CNc1cc(OC)c(C(=O)N[C@@H]2CCN(Cc3ccccc3)[C@H]2C)cc1Cl,inactive,–
COc1ccc(C(CNC(=O)c2ccc(Cl)c(NC(=O)c3cccs3)c2)N2CCCC2)cc1 (centres undefined),"inconclusive: 20.6 µM [activator, single point]",–
COc1cc(/C=N\NC(=O)c2ccc(Cn3nc([N+](=O)[O-])c(Cl)c3C)o2)ccc1O,inactive,–

# Retrieved by compound from the list above, two records:
Compound,Potency,re-replication activation
COc1cc(/C=N\NC(=O)c2ccc(Cn3nc([N+](=O)[O-])c(Cl)c3C)o2)ccc1O,inactive,–
CNc1cc(OC)c(C(=O)N[C@@H]2CCN(Cc3ccccc3)[C@H]2C)cc1Cl,inactive,–
